Residue numbers refer to the chain shown, from its start. These are yes or no findings as the source states them, for the method shown. Binding seen in cells or lysates may run through a third protein. Binding can be weak; no strength is given. Sequences can lack the tags named with a protein.
B1: endogenous NDP52 (protein, UniProt Q13137 1-446)
chain: MEETIKDPPTSAVLLDHCHFSQVIFNSVEKFYIPGGDVTCHYTFTQHFIPRRKDWIGIFRVGWKTTREYYTFMWVTLPIDLNNKSAKQQEVQFKAYYLPKDDEYYQFCYVDEDGVVRGASIPFQFRPENEEDILVVTTQGEVEEIEQHNKELCKENQELKDSCISLQKQNSDMQAELQKKQEELETLQSINKKLELKVKEQKDYWETELLQLKEQNQKMSSENEKMGIRVDQLQAQLSTQEKEMEKLVQGDQDKTEQLEQLKKENDHLFLSLTEQRKDQKKLEQTVEQMKQNETTAMKKQQELMDENFDLSKRLSENEIICNALQRQKERLEGENDLLKRENSRLLSYMGLDFNSLPYQVPTSDEGGARQNPGLAYGNPYSGIQESSSPSPLSIKKCPICKADDICDHTLEQQQMQPLCFNCPICDKIFPATEKQIFEDHVFCHSL
B2: FLAG-NDP52^WT (protein, UniProt Q13137 1-446)
chain: B1 chain
B3: FLAG-NDP52^GE (protein, UniProt Q13137 1-446)
chain: B1 chain with G140E

The binders below were run against endogenous TAU (human (endogenous in SH-SY5Y)) (assay: proximity ligation).

Binder	binding
B1	binds
B2	binds
B3	binds

— paper doi:10.1101/2024.08.13.24311780
